We go through 1 molecule from patent US20180094275A1 (AGRESEARCH, published 2018).

The target in assay [1] is T1, BiFC nYFP-NINJA (Arabidopsis thaliana).
T1 construct: Expressed transiently in Nicotiana benthamiana leaves; also called pDESTnYFP-NINJA
T1 chain: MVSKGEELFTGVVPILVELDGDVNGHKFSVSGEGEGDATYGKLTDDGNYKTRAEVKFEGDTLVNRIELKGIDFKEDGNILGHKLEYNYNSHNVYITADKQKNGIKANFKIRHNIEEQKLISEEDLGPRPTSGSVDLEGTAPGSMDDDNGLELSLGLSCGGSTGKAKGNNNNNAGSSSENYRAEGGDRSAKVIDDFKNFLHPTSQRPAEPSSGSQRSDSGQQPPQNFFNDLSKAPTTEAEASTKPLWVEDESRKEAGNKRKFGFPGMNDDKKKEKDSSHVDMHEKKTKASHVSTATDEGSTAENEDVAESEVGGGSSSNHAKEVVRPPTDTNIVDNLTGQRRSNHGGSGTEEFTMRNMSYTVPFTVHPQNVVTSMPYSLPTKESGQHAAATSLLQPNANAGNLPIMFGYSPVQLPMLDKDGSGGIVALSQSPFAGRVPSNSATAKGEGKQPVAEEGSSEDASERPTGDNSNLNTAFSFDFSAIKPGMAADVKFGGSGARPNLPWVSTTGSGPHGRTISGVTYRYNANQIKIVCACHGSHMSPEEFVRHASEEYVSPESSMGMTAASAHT
As to the kind of experiment: BiFC in Nicotiana benthamiana leaves.

Assay [2] has as its target T2, BiFC nYFP-BZR1 (Arabidopsis thaliana).
T2 construct: Expressed transiently in Nicotiana benthamiana leaves; also called pDESTnYFP-BZR1
T2 chain: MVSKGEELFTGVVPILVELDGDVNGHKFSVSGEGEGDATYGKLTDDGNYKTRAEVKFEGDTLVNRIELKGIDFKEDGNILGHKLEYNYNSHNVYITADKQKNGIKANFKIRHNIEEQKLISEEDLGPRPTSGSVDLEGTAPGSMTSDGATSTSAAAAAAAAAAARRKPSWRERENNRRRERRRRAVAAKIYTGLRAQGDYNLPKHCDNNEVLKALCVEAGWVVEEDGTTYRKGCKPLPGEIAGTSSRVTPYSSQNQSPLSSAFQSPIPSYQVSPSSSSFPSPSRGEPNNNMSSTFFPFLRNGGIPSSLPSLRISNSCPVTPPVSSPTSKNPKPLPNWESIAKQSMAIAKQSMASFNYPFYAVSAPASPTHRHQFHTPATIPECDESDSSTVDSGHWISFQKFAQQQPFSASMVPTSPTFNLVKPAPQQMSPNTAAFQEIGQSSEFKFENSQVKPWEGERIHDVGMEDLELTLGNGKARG
As to the kind of experiment: BiFC in immature Nicotiana benthamiana leaves.

B1: BiFC cYFP-PPD1-tify (PPD1 with the TIFY domain deleted, aa 154-186) (other)
chain: MDKQKNGIKANFKIRHNIEDGGVQLADHYQQNTPIGDGPVLLPDNHYLSYQSALSKDPNEKRDHMVLLEFVTAAGITLGMDELYKYPYDVPDYAGPRPTSGSVDLEGTAPGSMDVGVSPAKSILAKPLKLLTEEDISQLTREDCRKFLKDKGMRRPSWNKSQAIQQVLSLKALYEPGDDSGAGIFRKILVSQPVNPPRVTTTLIEPSNELEACGRVSYPEDNGACHRMDSPRSAEFSGGSGHFVSEKDGHKTTISPRSPAETSELIMHFAANPIDLPENGIFASSRMISKLISKEKMMELPQKGLEKANSSRDSGMEGQANRKVSLQRYREKRKDRKFSKAKKCPGVASSSLEMFLNCQPRMKAAYSQNLGCTGSPLHSQSPESQTKSPNLSVDLNSEGI
notes: also called cYFP-PPD1Δtify; pDESTcYFP-PPD1Δtify
As to B1, the binding result in assay [1] and in assay [2] was “no binding” each time.
